Experimental data as given in publication PMC5449720, “Characterization of Bile Salt Hydrolase from Lactobacillus gasseri FR4 and Demonstration of Its Substrate Specificity and Inhibitory Mechanism Using Molecular Docking Analysis” (Frontiers in Microbiology, 2017).
Where a name gives a salt, the structure may show the parent alone.

Each molecule was assayed on T1, LgBSH (bile salt hydrolase of Lactobacillus gasseri FR4) (assay: ninhydrin assay of released amino acid). Settings: 5000 µM; 5 mM inhibitor; conjugated bile salt substrate not named for this test; standard assay 10 mM DTT, pH 6.0, 37 °C.
T1 construct: gene bsh; 326-aa ORF (981 bp); tag kept; gene found via L. gasseri ATCC 33323 genome NC_008530.1; printed peptides LEISFGEH (20-27), LVDINFSKKLQLSPL (124-138)
Assay type: biochemical
For `CN(C)[C@@H]1C(=O)C(C(N)=O)=C(O)[C@@]2(O)C(=O)C3=C(O)c4c(O)cccc4[C@@](C)(O)[C@H]3[C@H](O)[C@@H]12` [Oxytetracycline], the “Inhibition %^a” value was 95.97%. `CC1(C)S[C@@H]2[C@H](NC(=O)COc3ccccc3)C(=O)N2[C@H]1C(=O)O` [Penicillin V] was tested, and the “Inhibition %^a” value was 97.84%. `O=C1O[C@H]([C@@H](O)CO)C(O)=C1O` [Ascorbic acid] was tested, and the “Inhibition %^a” value was 32.96%. For `CC[C@H]1OC(=O)[C@H](C)[C@@H](O[C@H]2C[C@@](C)(OC)[C@@H](O)[C@H](C)O2)[C@H](C)[C@@H](O[C@@H]2O[C@H](C)C[C@H](N(C)C)[C@H]2O)[C@](C)(O)C[C@@H](C)C(=O)[C@H](C)[C@@H](O)[C@]1(C)O` [Erythromycin], the “Inhibition %^a” value was 41.62%. With `CCC[C@@H]1C[C@@H](C(=O)N[C@@H]([C@H]2O[C@H](SC)[C@H](O)[C@@H](O)[C@H]2O)[C@@H](C)O)N(C)C1` [Lincomycin] the “Inhibition %^a” value was 18.58%. `Cc1cc2nc3c(=O)[nH]c(=O)nc-3n(C[C@H](O)[C@H](O)[C@H](O)CO)c2cc1C` [Riboflavin] was tested, and the “Inhibition %^a” value was 98.31%. For `C[C@H]1c2cccc(O)c2C(O)=C2C(=O)[C@]3(O)C(O)=C(C(N)=O)C(=O)[C@@H](N(C)C)[C@@H]3[C@@H](O)[C@@H]21` [Doxycycline hydrochloride], the “Inhibition %^a” value was 97.51%. With `CC1(C)S[C@@H]2[C@H](NC(=O)[C@H](N)c3ccccc3)C(=O)N2[C@H]1C(=O)O` [Ampicillin] the “Inhibition %^a” value was 96.39%.
